The text below walks through data of the supplement of paper PMC3682954.

Where a name gives a salt, the structure may show the parent alone. ± gives the standard deviation of the averaged measurements. Some of the results follow. Single values are uncertain, as repeats are few or missing.

In this assay the test system is RAW 264.7. Put plainly: HMGB1-induced TNF-alpha production relative to HMGB1-stimulated control; higher = more TNF-alpha secretion (less inhibition). To be noted: stimulus: HMGB1 5 ug/ml, 18 h.
[1] abbreviates: compound concentration: 1 ug/ml.

Regarding `NCCCCCC(=O)O`, the “HMGB1-induced TNF-alpha production” value (compound concentration: 3 uM) came out at 81.9%.
Take `NCCCCCC(=O)O` [Aminocaproic acid]: the “HMGB1-induced TNF-alpha production” value (compound concentration: 3 uM) worked out at 98.7%.
`CN(C)C(=N)NC(=N)N` [Metformin]: the “HMGB1-induced TNF-alpha production” value (compound concentration: 3 uM) came to 83.2%.
For `CN(C)C(=N)NC(=N)N`, for the setting “compound concentration: 3 uM”, the “HMGB1-induced TNF-alpha production” value came out at 98.3%.
As to `CN(C)C(=N)NC(=N)N` [Metformin hydrochloride], the “HMGB1-induced TNF-alpha production” value (compound concentration: 3 uM) came to 79%.
For `CC1CC2C3CCC4=CC(=O)C=CC4(C)C3(F)C(O)CC2(C)C1C(=O)CO` (centres undefined), for the setting “compound concentration: 3 uM”, the “HMGB1-induced TNF-alpha production” value was found to be 39%.
Still for that read-out and setting: as for `CC=CC(=O)N(CC)c1ccccc1C` [Crotamiton], the figure is 86.8 ± 21%; as for `CC=CC(=O)N(CC)c1ccccc1C`, 97.9 ± 22%; as for `CNCCc1ccccn1`, 87.4%.
On the same count and under the same terms, then `CNCCc1ccccn1` [Betahistine mesylate], with 65.3%; and `CC(=O)[C@@]1(O)CC[C@H]2[C@@H]3CCC4=CC(=O)CC[C@]4(C)[C@H]3CC[C@@]21C`, with 78.5%.
Regarding `C[C@H]1[C@H](C)CC[C@]2(C(=O)O)CC[C@]3(C)C(=CC[C@@H]4[C@@]5(C)CC[C@H](O)C(C)(C)[C@@H]5CC[C@]43C)[C@H]12` [Ursolic acid], under setting [1], the “HMGB1-induced TNF-alpha production” value is 64.5%.
In the case of `O=C(c1ccc(F)cc1)C1CCN(CCn2c(=O)[nH]c3ccccc3c2=O)CC1` [Ketanserin tartrate], under “compound concentration: 3 uM”, the “HMGB1-induced TNF-alpha production” value worked out at 96.8%.
On to `O=C(c1ccc(F)cc1)C1CCN(CCn2c(=O)[nH]c3ccccc3c2=O)CC1`, for which the “HMGB1-induced TNF-alpha production” value (compound concentration: 3 uM) was 100%.
Same read-out and setting: then `O=C(c1ccc(F)cc1)C1CCN(CCn2c(=O)[nH]c3ccccc3c2=O)CC1` [Ketanserin tartrate hydrate], with 80.7%.
For the molecule `O=C(c1ccc(F)cc1)C1CCN(CCn2c(=O)[nH]c3ccccc3c2=O)CC1` [Ketanserin], the “HMGB1-induced TNF-alpha production” value (compound concentration: 3 uM) was found to be 76.6%.
On the same count and under the same terms, then `CCN(CC)C(=O)c1ccc(O)c(OC)c1` [Ethamivan], with 58.9%; and `CCN(CC)C(=O)c1ccc(O)c(OC)c1`, with 90.6%.
For `CCN(CC)C(=O)c1ccc(O)c(OC)c1` [Vanillic acid diethylamide], the “HMGB1-induced TNF-alpha production” value (compound concentration: 3 uM) turned out to be 86.5%.
As for `NC1(C(=O)O)CC1` [1-Aminocyclopropanecarboxylic acid hydrochloride], under “compound concentration: 3 uM”, the “HMGB1-induced TNF-alpha production” value amounted to 116%.
As for `O=C1NC(=O)c2cc(Nc3ccccc3)c(Nc3ccccc3)cc21`, the “HMGB1-induced TNF-alpha production” value (compound concentration: 3 uM) came out at 93.7%.
Regarding `Cc1[nH]cnc1CN1CCc2c(c3ccccc3n2C)C1=O`, the “HMGB1-induced TNF-alpha production” value (compound concentration: 3 uM) is 101%.
As to `O=C(O)CCc1ccc(NCc2cccc(Oc3ccccc3)c2)cc1`, the “HMGB1-induced TNF-alpha production” value (compound concentration: 3 uM) amounted to 83.1%.
`CCCOc1ccc2[nH]c(NC(=O)OC)nc2c1` [Oxibendazole]: under “compound concentration: 3 uM”, the “HMGB1-induced TNF-alpha production” value was determined as 97.2%.
Regarding `CCCOc1ccc2[nH]c(NC(=O)OC)nc2c1`, the “HMGB1-induced TNF-alpha production” value (compound concentration: 3 uM) was determined as 114%.
On the same count and under the same terms, then `CCCOc1ccc2[nH]c(NC(=O)OC)nc2c1` [Oxibendazol], with 116%; and `O=C(CCCCCN1CCN(c2ccccc2-c2ccccc2)CC1)NC1CCCc2ccccc21` (centres undefined) [LP 12 hydrochloride hydrate], with 97%; and `Cc1cc2nc3c(=O)[nH]c(=O)nc-3n(C[C@H](O)[C@H](O)[C@H](O)CO)c2cc1C`, with 95.2%.
As for `CSC(=N)N` [S-Methylisothiourea hemisulfate], the “HMGB1-induced TNF-alpha production” value (compound concentration: 3 uM) was 111%.
As for `CN(CCCN1c2ccccc2CCc2ccccc21)CC(=O)c1ccc(Cl)cc1`, for the setting “compound concentration: 3 uM”, the “HMGB1-induced TNF-alpha production” value came out at 120%.
For `CN(C)CCOC(c1ccccc1)c1ccccc1.Cn1c(=O)c2[nH]c(Cl)nc2n(C)c1=O`, the “HMGB1-induced TNF-alpha production” value (compound concentration: 3 uM) is 85.2%.
In the case of `CN(C)CCOC(c1ccccc1)c1ccccc1.Cn1c(=O)c2[nH]c(Cl)nc2n(C)c1=O` [Dimenhydrinate], the “HMGB1-induced TNF-alpha production” value (compound concentration: 3 uM) turned out to be 70.9%.
Consider `Cl.N[C@@H](CCC(=O)O)C(=O)O` [L-Glutamic acid hydrochloride], for which, for the setting “compound concentration: 3 uM”, the “HMGB1-induced TNF-alpha production” value is 83.4%.
As for `O=C1NCC2(CCN(CCc3ccccc3)CC2)O1` [Fenspiride hydrochloride], the “HMGB1-induced TNF-alpha production” value (compound concentration: 3 uM) amounted to 85.9 ± 7.2%.
With `O=C1NCC2(CCN(CCc3ccccc3)CC2)O1`, the “HMGB1-induced TNF-alpha production” value (compound concentration: 3 uM) was determined as 102%.
Consider `Clc1ccc2c(c1)CCc1cccnc1C2=C1CCNCC1`, for which, where the note is “compound concentration: 3 uM”, the “HMGB1-induced TNF-alpha production” value was determined as 97.5%.
Take `Clc1ccc2c(c1)CCc1cccnc1C2=C1CCNCC1` [Desloratadine]: the “HMGB1-induced TNF-alpha production” value (compound concentration: 3 uM) was found to be 85.9 ± 3.1%.
Consider `CCCCCC(=O)OC1(C(C)=O)CCC2C3CCC4=CC(=O)CCC4(C)C3CCC21C` (centres undefined) [17a-Hydroxyprogesterone hexanoate], for which the “HMGB1-induced TNF-alpha production” value under setting [1] came to 59%.
In the case of `CN(C)CCCc1cc(C(=O)Nc2ccc(-c3ccncc3)cc2)ccc1O`, the “HMGB1-induced TNF-alpha production” value (compound concentration: 3 uM) turned out to be 82.3%.
In the case of `NC1CONC1=O` (racemic) [DL-Cycloserine], the “HMGB1-induced TNF-alpha production” value (compound concentration: 3 uM) came to 84.6%.
The same measure, in the same setting: then `CCc1nn(CCCN2CCN(c3cccc(Cl)c3)CC2)c(=O)n1CCOc1ccccc1` [Nefazodone HCl], with 65.5%; and `CCc1nn(CCCN2CCN(c3cccc(Cl)c3)CC2)c(=O)n1CCOc1ccccc1` [Nefazodone], with 82.5 ± 16%; and `O=S(=O)(c1cccc2cnccc12)N1CCCNCC1`, with 94.2%.
As to `COc1cc2nc(N3CCCN(C)CC3)nc(NC3CCN(Cc4ccccc4)CC3)c2cc1OC`, the “HMGB1-induced TNF-alpha production” value (compound concentration: 3 uM) turned out to be 99.4%.
